# Data taken from PubChem BioAssay AID588497 (NMMLSC, 2011).
# Hit rate of the full screen: of about 360,000 compounds, about 780 (0.22%) were called active. This list was built around the results that the source calls inconclusive (neither active nor inactive); the mix of calls is not that of the screen. Rule as the data show it: active = inhibition above about 35% (passing the limit was not always enough); inconclusive = no clear call, values can overlap the other calls.
# Tested on: Botulinum neurotoxin type F light chain protease (Clostridium botulinum)
# Assay: BoNT/F light chain protease inhibitors, primary screen, biochemical, flow cytometry, MLPCN library (AID 588497); also: plate controls were buffer without enzyme for full effect and enzyme alone for no effect
# Conditions: Multiplex microsphere protease cleavage assay, at 10 µM, stronger effect = higher value
row,Structure (SMILES),inhibition
1,CC(=O)Nc1cccc(NC(=O)Cc2ccc3ccccc3c2)c1,inconclusive: 16.3%
2,Cc1ccccc1C(=O)NNC1=NCCC1,inactive: -0.7%
3,CCNC(=S)NC1CC2CCCC(C1)N2CCc1ccccc1 (configuration not stated),inconclusive: -1.8%
4,Cc1cc(C)c(C(=O)COC(=O)CNC(=O)c2ccccc2C)c(C)c1,inconclusive: -2.8%
5,COCc1cc(=O)oc2cc(NC(=O)c3ccc(C(C)(C)C)cc3)ccc12,inconclusive: 2.7%
6,COCCCN(C(=O)c1cc(Cl)nc2ccccc12)c1c(N)n(Cc2ccccc2)c(=O)[nH]c1=O,inconclusive: 16.4%
7,Cc1nc2ccccc2c(=O)n1/N=C/c1ccc(O)c(O)c1O,inconclusive: 9.2%
8,O=S1(=O)CC(N2CCCC2)CN1Cc1cn(Cc2ccc(F)cc2)nn1 (configuration not stated),inactive: -6.6%
9,Cc1cccc(N2CCN(c3nc(C)cc(C)c3C#N)CC2C)c1 (configuration not stated),inconclusive: -36.2%
10,COc1ccc(CNC(=O)COC(=O)c2n[nH]c3ccccc23)cc1OC,inconclusive: -8.2%
11,CCc1nc2ccc(C(=O)NCCCN3CCCC3=O)cn2c1N(CC)Cc1cccc(Br)c1,inactive: -1.3%
12,c1ccc(-c2ccc3[nH]ccc3c2)cc1,inactive: -2.4%
13,FC(F)(F)c1ccnc(Oc2ccc(C3=NCCS3)cc2)c1,inconclusive: -22.1%
14,CN(C(=O)CSc1nnc(-c2cccs2)n1C1CC1)C1CCS(=O)(=O)C1 (configuration not stated),inactive: -8.6%
15,COc1ccc(S(=O)(=O)NCc2ccccn2)cc1OC,inconclusive: -9.1%
16,COc1cccc(OC)c1C(=O)Nc1ccccc1N1CCCC1,inconclusive: -16.6%
17,Cc1ccc(S(=O)(=O)N2CCCC2C(=O)NCc2ccccc2Cl)cc1 (configuration not stated),inconclusive: -4.7%
18,CCSc1nsc(NC(=O)Nc2ccccc2OC)n1,inconclusive: -14.1%
19,Cc1ccc(C(=O)OCC(=O)NC2CCCC2)cc1C,inconclusive: 3%
20,Cn1cccc1/C=C1\SC(=Nc2ccccc2)NC1=O,active: 35.7%
21,CCSC(=Nc1ccccc1)C1=C(O)COC1=O,inconclusive: -6%
22,O=C1c2cccc3c(O)ccc(c23)C(=O)N1Cc1ccccc1,active: 111%
23,COc1cc(OC)c(C2C(C(=O)O)c3ccccc3C(=O)N2C)cc1OC (configuration not stated),inconclusive: -19.6%
24,CCCCOc1ccc(C2OC34CCCCC3C(C#N)(C#N)C2(C#N)C(=N)O4)cc1 (configuration not stated),inactive: 13.9%
25,CNC(=O)CSc1nnc(-c2ccco2)n1-c1cc(C)ccc1C,inconclusive: -17.8%
26,CCc1cccc(C)c1NC(=O)c1cccnc1,inconclusive: 9.8%
27,COc1ccc(-n2c(CN3CCN(c4ccc(F)cc4)CC3)nc3ccc([N+](=O)[O-])cc3c2=O)c(OC)c1,inconclusive: -10.2%

# Some values from the entries so far:
# `c1ccc(-c2ccc3[nH]ccc3c2)cc1` | inhibition: inactive: -2.4%
# `CN(C(=O)CSc1nnc(-c2cccs2)n1C1CC1)C1CCS(=O)(=O)C1` (configuration not stated) | inhibition: inactive: -8.6%
